Results are given in words; binding and its absence hold for the method and conditions named. Binding seen in cells or lysates may run through a third protein. Some binding calls cover weakened binding; strength is not graded here.
Assays:
[1] = target: FLAG-tagged wild-type hnRNPAB (heterogeneous nuclear ribonucleoprotein A/B), full-length (human) (UniProt Q99729); experiment: co-IP; truncation mapping: FLAG-hnRNPAB constructs (full-length or truncated) with MYC-TRIM25, and MYC-TRIM25 constructs (full-length or truncated) with FLAG-hnRNPAB; immunoblots
[2] = target: hnRNPAB in ESCC cell lines transfected with MYC-TRIM25 and tRF-22 plasmids (human (endogenous in ESCC cell lines)) (UniProt Q99729); experiment: co-IP; lysates of ESCC cell lines co-transfected with MYC-TRIM25-WT/ΔPS and tRF-22 overexpression or knock-down plasmids; immunoprecipitation and immunoblotting
[3] = target: hnRNPAB Lys91Arg mutant (human) (UniProt Q99729); experiment: co-IP; immunoprecipitation of wild-type or Lys91Arg hnRNPAB in the RIP assays of Figure S11E, TRIM25 binding compared; cells and constructs not given
[4] = target: hnRNPAB of the co-immunoprecipitation assays of Figure S10B,C (human) (UniProt Q99729); experiment: co-IP; co-immunoprecipitation assays of Figure S10B,C; cells and constructs not given

The chains behind the UniProt entries cited, without tags or fusion partners. Where a name states a change or a piece, a line headed by the entry shows the natural chain unless it says otherwise. A line that says so, or that is headed by a name, gives the form on record, which may keep a tag or linker.
UniProt Q99729: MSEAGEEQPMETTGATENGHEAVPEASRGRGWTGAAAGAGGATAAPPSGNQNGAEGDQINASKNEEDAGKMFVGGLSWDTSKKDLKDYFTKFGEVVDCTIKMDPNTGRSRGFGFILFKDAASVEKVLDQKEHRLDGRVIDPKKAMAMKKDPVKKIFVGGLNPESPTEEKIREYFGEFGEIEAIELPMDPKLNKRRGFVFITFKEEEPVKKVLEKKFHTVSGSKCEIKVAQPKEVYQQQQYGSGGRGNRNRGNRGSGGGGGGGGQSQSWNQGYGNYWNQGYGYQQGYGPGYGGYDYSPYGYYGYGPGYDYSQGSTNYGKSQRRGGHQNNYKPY
hnRNPAB Lys91Arg mutant (Q99729, form named): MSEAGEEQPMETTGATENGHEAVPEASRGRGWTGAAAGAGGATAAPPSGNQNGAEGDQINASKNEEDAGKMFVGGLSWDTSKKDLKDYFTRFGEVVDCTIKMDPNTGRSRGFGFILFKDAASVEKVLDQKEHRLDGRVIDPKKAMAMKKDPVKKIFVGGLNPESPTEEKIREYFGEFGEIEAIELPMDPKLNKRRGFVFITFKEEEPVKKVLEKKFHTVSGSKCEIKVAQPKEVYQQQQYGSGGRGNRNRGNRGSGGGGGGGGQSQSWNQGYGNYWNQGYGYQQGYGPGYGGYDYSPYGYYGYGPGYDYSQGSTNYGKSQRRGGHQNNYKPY
UniProt Q14258: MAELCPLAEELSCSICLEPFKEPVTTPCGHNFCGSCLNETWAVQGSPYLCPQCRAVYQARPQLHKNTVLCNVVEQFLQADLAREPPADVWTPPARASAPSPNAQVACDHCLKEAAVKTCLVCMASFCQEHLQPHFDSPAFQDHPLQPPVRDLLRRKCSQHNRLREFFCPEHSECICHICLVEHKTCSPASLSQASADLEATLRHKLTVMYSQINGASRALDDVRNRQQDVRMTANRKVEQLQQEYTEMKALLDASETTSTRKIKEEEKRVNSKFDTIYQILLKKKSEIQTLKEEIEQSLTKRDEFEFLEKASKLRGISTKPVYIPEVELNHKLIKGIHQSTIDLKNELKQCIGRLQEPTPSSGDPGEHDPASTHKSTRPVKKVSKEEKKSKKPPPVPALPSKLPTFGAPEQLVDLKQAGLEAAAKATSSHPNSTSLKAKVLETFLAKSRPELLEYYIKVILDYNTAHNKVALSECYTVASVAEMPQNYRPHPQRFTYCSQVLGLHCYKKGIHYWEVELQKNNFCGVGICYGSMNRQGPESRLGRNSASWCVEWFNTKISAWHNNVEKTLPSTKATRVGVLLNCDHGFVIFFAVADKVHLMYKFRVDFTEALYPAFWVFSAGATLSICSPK

| Substance | binding [1] | binding [2] | binding [3] | binding [4] |
| --- | --- | --- | --- | --- |
| MYC-tagged wild-type TRIM25, full-length (from UniProt Q14258 1-630) (enzyme) | binds | binds |  |  |
| TRIM25 of the supplementary co-immunoprecipitations (Figures S10B,C and S11E) (from UniProt Q14258 1-630) (enzyme) |  |  | binds | binds |

From PMC12767015
